According to patent US7456289B2, “Anti-tumor compounds” (National Health Research Institutes, priority 2004, dated 2008):
Some entries share one result that the patent states for a list of compounds.

Each molecule was assayed on MKN-45 cells (assay: Cell growth inhibition assay (MTS or methylene blue), MKN-45 cells). Conditions: 72 h incubation.
Type: cell-based

SMILES | inhibition of growth of MKN-45 cells
COc1ccn2c(C(=O)c3cc(OC)c(OC)c(OC)c3)cnc2c1 [compound 1, (7-methoxy-imidazo[1,2-a]pyridin-3-yl)-(3,4,5-trimethoxy-phenyl)-methanone] | effectively inhibited growth
COc1ccn2c(C(=O)c3cc(OC)c(OC)c(OC)c3)c(C)nc2c1 [compound 2, (7-methoxy-2-methyl-imidazo[1,2-a]pyridin-3-yl)-(3,4,5-trimethoxy-phenyl)-methanone] | effectively inhibited growth
COC1=CC2NN=C(C(=O)c3cc(OC)c(OC)c(OC)c3)C2C=C1 (centres unmarked) [compound 3, (6-methoxy-3a,7a-dihydro-1H-indazol-3-yl)-(3,4,5-trimethoxy-phenyl)-methanone] | effectively inhibited growth
COc1ccc2c(C(=O)c3cc(OC)c(OC)c(OC)c3)ccn2c1 [compound 4, (6-methoxy-indolizin-1-yl)-(3,4,5-trimethoxy-phenyl)-methanone] | effectively inhibited growth
COc1ccc2c(C(=O)c3cc(OC)c(OC)c(OC)c3)c(C)cn2c1 [compound 5, (6-methoxy-2-methyl-indolizin-1-yl)-(3,4,5-trimethoxy-phenyl)-methanone] | effectively inhibited growth
CCc1cn2cc(OC)ccc2c1C(=O)c1cc(OC)c(OC)c(OC)c1 [compound 6, (2-ethyl-6-methoxy-indolizin-1-yl)-(3,4,5-trimethoxy-phenyl)-methanone] | effectively inhibited growth
COc1ccn2c(C(=O)c3cc(OC)c(OC)c(OC)c3)c(C)cc2c1 [compound 7, (7-methoxy-2-methyl-indolizin-3-yl)-(3,4,5-trimethoxy-phenyl)-methanone] | effectively inhibited growth
COc1cc(C(=O)c2c[nH]c3nc(C)ccc23)cc(OC)c1OC [compound 8, (6-methyl-1H-pyrrolo[2,3-b]pyridin-3-yl)-(3,4,5-trimethoxy-phenyl)-methanone] | effectively inhibited growth
COc1ccc2c(C(=O)c3cc(OC)c(OC)c(OC)c3)c[nH]c2n1 [compound 9, (6-methoxy-1H-pyrrolo[2,3-b]pyridin-3-yl)-(3,4,5-trimethoxy-phenyl)-methanone] | effectively inhibited growth
CCOc1ccc2c(C(=O)c3cc(OC)c(OC)c(OC)c3)c[nH]c2n1 [compound 10, (6-ethoxy-1H-pyrrolo[2,3-b]pyridin-3-yl)-(3,4,5-trimethoxy-phenyl)-methanone] | effectively inhibited growth
COC1=CC2OC=C(C(=O)c3cc(OC)c(OC)c(OC)c3)C2C=C1 (centres unmarked) [compound 11, (6-methoxy-3a,7a-dihydro-benzofuran-3-yl)-(3,4,5-trimethoxy-phenyl)-methanone] | effectively inhibited growth
COC1=CC2OC(C)=C(C(=O)c3cc(OC)c(OC)c(OC)c3)C2C=C1 (centres unmarked) [compound 12, (6-methoxy-2-methyl-3a,7a-dihydro-benzofuran-3-yl)-(3,4,5-trimethoxy-phenyl)-methanone] | effectively inhibited growth
COC1=CC2SC=C(C(=O)c3cc(OC)c(OC)c(OC)c3)C2C=C1 (centres unmarked) [compound 13, (6-methoxy-3a,7a-dihydro-benzo[b]thiophen-3-yl)-(3,4,5-trimethoxy-phenyl)-methanone] | effectively inhibited growth
COC1=CC2SC(C)=C(C(=O)c3cc(OC)c(OC)c(OC)c3)C2C=C1 (centres unmarked) [compound 14, (6-methoxy-2-methyl-3a,7a-dihydro-benzo[b]thiophen-3-yl)-(3,4,5-trimethoxy-phenyl)-methanone] | effectively inhibited growth
